Measurements reported in PubChem BioAssay AID504786 (Drosophila RNAi Screening Center, 2011)

Purpose: 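Positive regulators of HIF-driven reporter output in Drosophila cells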 (primary screen)
System: Drosophila S2 cells with a stable HIF luciferase reporter
Reagent: long dsRNA against Drosophila genes, about 0.2 µg dsRNA per well of a 384-well plate
Duration: three days of knock-down, then 20 h of DFO before reading
Conditions: desferrioxamine (DFO) at 100 µM, an iron chelator that mimics hypoxia, for 20 h
Measurement: 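Firefly luciferase driven by the mouse ldh-a hypoxia-response element, measured after 20 h of 100 µM DFO; z-scores per plate, higher means more signal lost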
Reading the numbers: z-score: higher = stronger loss of HIF reporter signal
In all, the deposit lists about 21,000 reagents; this is an unselected part of those with a known target gene and a result. 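Primary screen; positive scores mean lost reporter signal, so the sign may be inverted from the usual convention.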 Names joined by + are all predicted targets of the reagent. Further read-outs or replicates are left out here. No sequences are given here.

CG18563 [DRSC02676]
- z-score, replicate 1: 1.4

CG12056 [DRSC17796]
- z-score, replicate 1: -0.3

CG14684 [DRSC14907]
- z-score, replicate 1: -0.4

Rad9 [DRSC11263]
- z-score, replicate 1: -0.4

Tektin-C [DRSC09741]
- z-score, replicate 1: 3.6

Ice2 [DRSC14268]
- z-score, replicate 1: -0.2

obe [DRSC15736]
- z-score, replicate 1: -0.2

fdl [DRSC07279]
- z-score, replicate 1: -0.3

CG8149 [DRSC16391]
- z-score, replicate 1: 0.1

CG30429 [DRSC04040]
- z-score, replicate 1: -0.2

Shawn + Tyler [DRSC19564]
- z-score, replicate 1: -0.2

Shawn + Tyler [DRSC19565]
- z-score, replicate 1: -0.4

nerfin-2 [DRSC14547]
- z-score, replicate 1: -0.1

SmydA-4 [DRSC19390]
- z-score, replicate 1: -0.3

pum [DRSC12722]
- z-score, replicate 1: -0.4

pum [DRSC12726]
- z-score, replicate 1: 0.2

pum [DRSC17037]
- z-score, replicate 1: 0.8

pum [DRSC17038]
- z-score, replicate 1: -0.4

CG13814 (retired record) [DRSC10069]
- z-score, replicate 1: -0.2

ems [DRSC16941]
- z-score, replicate 1: -0.4

CG14877 [DRSC15001]
- z-score, replicate 1: -0.4

CG11550 [DRSC14326]
- z-score, replicate 1: -0.1

CG9004 [DRSC08617]
- z-score, replicate 1: 0.1

CG7362 [DRSC16236]
- z-score, replicate 1: 0

Gbp3 [DRSC15206]
- z-score, replicate 1: -0.1

CG12194 [DRSC00345]
- z-score, replicate 1: -0.3

r-cup [DRSC20475]
- z-score, replicate 1: -0.3

CG13407 [DRSC14583]
- z-score, replicate 1: 0.1

Jhedup [DRSC07173]
- z-score, replicate 1: -0.2

l(3)neo43 [DRSC14988]
- z-score, replicate 1: 0

CG12204 [DRSC19442]
- z-score, replicate 1: 0

CG12860 [DRSC06200]
- z-score, replicate 1: -0.3

RtGEF [DRSC03604]
- z-score, replicate 1: -0.1

CG2246 [DRSC15433]
- z-score, replicate 1: -0.1

GV1 [DRSC08228]
- z-score, replicate 1: -0.2

mAChR-C [DRSC17890]
- z-score, replicate 1: -0.3

CG13907 [DRSC08377]
- z-score, replicate 1: -0.2

Lrrk [DRSC15816]
- z-score, replicate 1: -0.9

Yp2 [DRSC18732]
- z-score, replicate 1: -0.2

Gr77a [DRSC11446]
- z-score, replicate 1: 0.1

2 entries already listed, sorted by “z-score, replicate 1”, lowest first:
pum [DRSC17038]
- z-score, replicate 1: -0.4

pum [DRSC17037]
- z-score, replicate 1: 0.8
